The data set concerns BstYI restriction endonuclease (Bacillus stearothermophilus Y406). The data set can be described thus: enzyme reaction in vitro. The conditions noted are these: N6-methyladenine in GATC (Dam); Dam methylation does not confer resistance to BstYI digestion; purified recombinant protein; only the motif is given.

Construct, isoform or probe ends are uncertain for at least one entry.

On to “GATC (double strand) [Dam-methylated GATC DNA]”, for which the “activity on this sequence” value is “active”.

The values above are taken from US6403354.
